# Test results: PMC10489748, “The Anti-Breast Cancer Stem Cell Potency of Copper(I)-Non-Steroidal Anti-Inflammatory Drug Complexes” (Molecules, 2023)
# Tested on: HMLER-shEcad cells
# Assay: Cellular uptake, copper content in whole cell by ICP-MS
# Type: cell-based, human
# Settings: 5 µM for 24 h
row,Compound,Copper content in whole cell
1,"O=C([O-])Cc1ccccc1Nc1c(Cl)cccc1Cl.[Cu+].c1ccc(P(c2ccccc2)c2ccccc2)cc1.c1ccc(P(c2ccccc2)c2ccccc2)cc1 [compound 1, [Cu^I(diclofenac)(PPh3)2]]",235 ± 5 ng of Cu/million cells
2,"COc1ccc2cc(C(C)C(=O)[O-])ccc2c1.[Cu+].c1ccc(P(c2ccccc2)c2ccccc2)cc1.c1ccc(P(c2ccccc2)c2ccccc2)cc1 [compound 2, [Cu^I(naproxen)(PPh3)2]]",259 ± 5 ng of Cu/million cells
3,"O=C([O-])c1ccccc1O.[Cu+].c1ccc(P(c2ccccc2)c2ccccc2)cc1.c1ccc(P(c2ccccc2)c2ccccc2)cc1 [compound 3, [Cu^I(salicylate)(PPh3)2]]",302 ± 4 ng of Cu/million cells
